# Laboratory results from patent EP0670711B1, “ANTIFUNGAL MOUTHCARE COMPOSITIONS” (AMBI Inc., priority 1992, dated 1994).
# Columns and labels:
# Assay type in all cases: cell-based
# Act. israelii = test: nominal inhibitory concentration (NIC) assay; details: Actinomyces israelii, read-out: NIC
# Experimental: (§1) The antibacterial spectrum of activity of Ambicin N (Amb) was determined by testing the compound against a range of orally important Gram negative and Gram positive bacteria in a conventional nominal inhibitory concentration (NIC) assay and compared with that of cetyl pyridinium chloride (CPC), chlorhexidine (CHX) and triclosan. […] In comparison, CPC, CHX and TCN are all effective against Candida.
# Candida albicans = test: nominal inhibitory concentration (NIC) assay; details: read-out: NIC
# Experimental: as §1
# Candida organisms = test: NIC assay, summary for Candida; details: read-out: levels for Candida inhibition
# [1] = tested on: all the organisms shown in the Example 25 Table 1; test: NIC assay, summary over all organisms of Table 1; details: read-out: levels needed to inhibit all the desired oral microrganisms
smiles,measurement,setting,value
"CCCCCCCCCCCCCCCC[n+]1ccccc1 [CPC, cetyl pyridinium chloride]",MIC,Act. israelii,8.15 µg/mL
same,MIC,Candida albicans,1.39 µg/mL
same,MIC,Candida organisms,~1.39 µg/mL
same,MIC,[1],~8.15 µg/mL
